Results published in PubChem BioAssay AID2685 (National Center for Advancing Translational Sciences (NCATS), 2010).
The list shows a part of the results. The main result of the screen is listed elsewhere. These columns were measured beside it and carry no call. Compounds called inactive in the main read-out are mostly missing here. Words in brackets tell the shape of the fitted curve; partial curves, single points and poor fits give uncertain potencies.

Experiment: qHTS Assay for Lipid Storage Modulators in Drosophila S3 Cells;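 for cell number change: cells counted by Cell Tracker Red CMTPX staining in the red channel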
Conditions: BODIPY lipid droplet fluorescence, 18-24 h; for cell number change: measured here: cell count max response, cells fed with added oleic acid
In short: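 Laser-scanning cytometry quantifies lipid droplet accumulation (500–530 nm total intensity; droplet/cell object ratio) in oleic acid-fed (400 uM added) Drosophila S3 cells treated with a concentration series. 20 uM Triacsin C defined 100% inhibition.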

[1] = measured here: cell number channel AC50, cells fed with added oleic acid
[2] = measured here: lipid fluorescence (Fed channel) AC50, cells fed with added oleic acid

## Cc1ccc(S(=O)(=O)N2[C@@H](c3ccc(Cl)cc3)C(C(=O)O)=CC[C@H]2c2ccc3c(c2)OCO3)cc1
  cell number change: -19%

## CCOC(=O)C1CCCN(C(=O)c2ccc(Cl)cc2)C1 (centres undefined)
  cell number change: 146%
[1]
  AC50: 16.4 µM [rising, partial curve]
[2]
  AC50: 0.651 µM [rising, single point]

## Cc1noc(C)c1CSc1ccccc1C(=O)N(C)CC(=O)Nc1cccc(F)c1
  cell number change: -10.5%
[2]
  AC50: 4.11 µM [falling, full curve, poor fit]

## COc1cc(/C=C/C(=O)Nc2ccc(C)cc2)cc(OC)c1OC
[2]
  AC50: 0.461 µM [rising, full curve]

## CC1CN=C(N(C(=S)Nc2ccccc2)c2cccc(C(F)(F)F)c2)S1 (centres undefined)
  cell number change: 6.83%
[2]
  AC50: 0.731 µM [falling, single point]

## COc1ccc(CCNC(=O)c2ccc(CS(=O)Cc3ccc(Cl)cc3)o2)cc1OC (centres undefined)
[2]
  AC50: 6.51 µM [falling, single point]

## O=[N+]([O-])c1cccc(N(CC2CO2)S(=O)(=O)c2ccccc2)c1 (centres undefined)
  cell number change: -3.04%

## CCOC(=O)c1sc(-c2ccc(C)cc2)c(C#N)c1C
  cell number change: 24.7%
[2]
  AC50: 5.8 µM [rising, partial curve]

## CCOc1ccc(C(C)=O)cc1COc1cccnc1[N+](=O)[O-]
  cell number change: -9.21%
[2]
  AC50: 35.5 µM [rising, single point]

## Cn1c(/C(C#N)=C/Nc2ccccn2)nc2ccccc21
[1]
  AC50: 2.59 µM [rising, partial curve]
[2]
  AC50: 3.66 µM [rising, partial curve]

## CC(NC(=O)COC(=O)c1ccc2c(c1)OCO2)c1ccccc1 (centres undefined)
[2]
  AC50: 0.146 µM [rising, full curve, poor fit]

## COC(=O)c1c(C)cc(C)n2c1nc1ccccc12
  cell number change: 36.6%
[1]
  AC50: 7.31 µM [rising, partial curve, poor fit]
[2]
  AC50: 6.51 µM [rising, full curve]

## CCOC(=O)c1ccccc1NC(=O)c1ccccc1N(C)S(C)(=O)=O
  cell number change: 10.3%
[2]
  AC50: 29.1 µM [falling, single point]

## CC(C)(C)C(=O)O/N=C(\N)COc1cccc(Cl)c1
  cell number change: 5.81%

## CCN(Cc1ccccc1)C(=O)CSc1ncn[nH]1
  cell number change: -0.451%
[2]
  AC50: 6.51 µM [falling, single point]

## Cc1ccc(OCC(=O)N2CCc3ccccc3C2)c([N+](=O)[O-])n1
  cell number change: 26.5%
[1]
  AC50: 0.103 µM [rising, full curve, poor fit]
[2]
  AC50: 0.206 µM [rising, full curve, poor fit]

## CC1CCCCC12NC(=O)N(Cn1nnc3ccccc3c1=O)C2=O (centres undefined)
  cell number change: 0.252%
[2]
  AC50: 0.731 µM [rising, full curve]

## Cc1ccc(S(=O)(=O)N2CCCOC2CNC(=O)C(=O)NCCC2=CCCCC2)cc1 (centres undefined)
  cell number change: 14.7%
[2]
  AC50: 8.2 µM [rising, partial curve, poor fit]

## C/C(=C\C(=O)c1ccccc1)Nc1ccc2c(c1)OCO2
  cell number change: -23.4%

## CSc1cccc(NC(=O)c2c(Cl)cnn2C)c1
  cell number change: -7.45%
[2]
  AC50: 6.51 µM [falling, single point]

## CCN(CCCNC(=O)C1CCCN(S(=O)(=O)CC)C1)c1cccc(C)c1 (centres undefined)
  cell number change: -6.42%
[2]
  AC50: 29.1 µM [rising, single point]

## Cc1cc(OCC(=O)NC(C)C)ccc1Cl
  cell number change: 11.9%

## COCCSc1nnc(NC(=O)c2ccc(NC(=O)C(C)C)cc2)s1
  cell number change: -26.2%
[2]
  AC50: 4.61 µM [falling, single point]

## O=C(NCCCCNC(=O)c1ccc(Br)s1)c1ccc(Br)s1
  cell number change: 11.6%
[2]
  AC50: 0.651 µM [falling, partial curve, poor fit]

## Cc1ccc(C)c(N2CCN(C(=O)Cc3ccc(-n4c(=O)[nH]c5ccsc5c4=O)cc3)CC2)c1
  cell number change: 3.87%
[2]
  AC50: 16.4 µM [rising, single point]

## CCC(NS(=O)(=O)c1ccc(OC)cc1)C(=O)NCCC1=CCCCC1 (centres undefined)
  cell number change: 7.01%
[2]
  AC50: 0.0058 µM [rising, full curve, poor fit]

## Cc1ccc(C(=O)C(C)OC(=O)Cc2n[nH]c(=O)c3ccccc23)cc1 (centres undefined)
  cell number change: -25.8%
[2]
  AC50: 0.116 µM [falling, full curve, poor fit]

## CCc1ccc(Nc2n[n+](C)c(-c3ccc(C(=O)O)cc3)s2)cc1
[2]
  AC50: 16.4 µM [rising, partial curve]

## COc1cc2c(C#N)c(N3CCN(c4ccccc4OC)CC3)nc(N)c2c(N)n1
  cell number change: -50.8%
[1]
  AC50: 16.4 µM [falling, single point]
[2]
  AC50: 29.1 µM [falling, single point]

## Cn1c(N)c(Sc2ccc(F)cc2)c(=O)n(C)c1=O
  cell number change: 1.97%
[2]
  AC50: 3.66 µM [falling, single point]

## CSC1=NCCN1C(=O)c1ccc(S(=O)(=O)N(C)C)cc1
  cell number change: 3.68%
[2]
  AC50: 7.31 µM [falling, single point]

## CCC(CC)NC(=O)COC(=O)c1ccc(OCC(=O)Nc2ccccc2OC)c(OC)c1
  cell number change: 33.5%
[1]
  AC50: 29.1 µM [rising, single point]

## CCN(C(=O)COC(=O)c1c(C)nn(-c2ccccc2)c1C)C1CCS(=O)(=O)C1 (centres undefined)
  cell number change: -30%
[1]
  AC50: 2.31 µM [falling, full curve]
[2]
  AC50: 0.206 µM [falling, full curve]

## CCOC(=O)CNC(=O)Cn1cnc2ccc(S(=O)(=O)N3CCC(C)CC3)cc2c1=O
  cell number change: 16.7%

## N#Cc1nc(COc2ccc(Cl)cc2)oc1N1CCN(Cc2ccccc2)CC1
  cell number change: 14.1%

## COc1cc(NC(=O)c2ccc3c(c2)C(=O)N(CCC(C)C)C3=O)c(C(=O)O)cc1OC
  cell number change: 1.32%

## Cc1c(Cl)cccc1NC(=O)Cc1cccs1
  cell number change: 3.3%
[2]
  AC50: 0.58 µM [rising, single point]

## CCc1sc(C(=O)Nc2cccnc2)cc1Br
  cell number change: -3.03%
[2]
  AC50: 4.61 µM [falling, single point]

## O=C(NCc1cccnc1)C1CCCN(S(=O)(=O)c2ccc(Cl)cc2)C1 (centres undefined)
[1]
  AC50: 0.92 µM [rising, partial curve]

## Cc1ccc(O)c(CNc2cnc3ccccc3c2)c1
  cell number change: -12.9%

## COC(=O)c1sc2ncn(CC(=O)N(C)C3CCCCC3)c(=O)c2c1C
  cell number change: 2.17%
[2]
  AC50: 6.51 µM [falling, single point]

## CCCn1c(=O)c(C(=O)Nc2cccc(C)c2)c(O)c2ccccc21
  cell number change: 23.6%

## CCC(CC)=N/N=C/c1c(O)n(CC)c2cc(C3=NNC(=O)CC3)ccc12
  cell number change: -33.6%
[1]
  AC50: 14.6 µM [falling, partial curve, poor fit]
[2]
  AC50: 14.6 µM [falling, partial curve]

## COc1ccc(-c2nnc(SCc3ncc(-c4ccccc4)o3)o2)cc1
  cell number change: -7.3%
[2]
  AC50: 4.11 µM [rising, single point]

## CCCC(c1nnnn1CCc1ccccc1)N1CCN(C(=O)c2ccco2)CC1 (centres undefined)
  cell number change: -11.8%
[2]
  AC50: 1.84 µM [rising, partial curve, poor fit]

## COc1cccc(/C=N/Nc2nn3cnnc3c3ccccc23)c1O
  cell number change: 5.47%
[1]
  AC50: 0.651 µM [falling, single point]

## Cc1cccc2[nH]c(-c3ccc(NC(=O)c4ccco4)cc3)nc12
  cell number change: -16.9%
[2]
  AC50: 0.92 µM [rising, partial curve, poor fit]

## CCOC(=O)c1ccc(N2CCN(c3ccc(F)cc3)CC2)c(NC(=O)Nc2cccc(OC)c2)c1
  cell number change: 12.9%
[2]
  AC50: 9.2 µM [rising, partial curve]

## CCOc1ccc(S(=O)(=O)NC(C)C(=O)NCc2cccnc2)cc1 (centres undefined)
  cell number change: -6.58%
[2]
  AC50: 35.5 µM [rising, single point]

## C=CCOc1c(CNc2cccc(C(=O)O)c2)cccc1OC
  cell number change: 1.93%
[2]
  AC50: 1.3 µM [falling, partial curve]

## Cc1cc(C)c(NC(=O)c2cc(=O)c3ccccc3o2)c(C)c1
  cell number change: 22.7%
[2]
  AC50: 2.91 µM [rising, full curve, poor fit]

## CC1CCCN(S(=O)(=O)c2ccc(NC(=O)C3CC(=O)N(c4ccccc4)C3)cc2)C1 (centres undefined)
  cell number change: -4.7%

## COc1ccc(CNC(=S)Nc2ccc(S(N)(=O)=O)cc2)cc1
  cell number change: 16.6%
[1]
  AC50: 0.58 µM [rising, single point]
[2]
  AC50: 1.16 µM [rising, single point]

## COc1cc(NC(=S)N2CCN(C)CC2)c(OC)cc1Cl
  cell number change: 4.03%

## OC(COc1ccc2c(c1)OCO2)CN1CCCCC1 (centres undefined)
  cell number change: -59.5%
[1]
  AC50: 1.3 µM [falling, partial curve]

## COc1cc(OC)cc(C(=O)N2CCC(C(=O)NCCc3ccccc3)CC2)c1
  cell number change: 4.4%
[2]
  AC50: 32.6 µM [falling, partial curve, poor fit]

## CN(C)C=Nc1ncc2c([nH]c3ccccc32)c1C#N
[1]
  AC50: 1.64 µM [rising, partial curve]
[2]
  AC50: 0.731 µM [rising, partial curve]

## CCOc1ccccc1N(CC(=O)N1CCCC1)S(C)(=O)=O
  cell number change: 0.365%
[2]
  AC50: 29.1 µM [rising, single point]

## O=C(CN1C(=O)c2ccccc2C1=O)NCCc1c[nH]c2ccc(Cl)cc12
[2]
  AC50: 0.58 µM [rising, single point]

## COc1ccc(NC(=O)NNC(=O)c2ccc(-c3ccccc3)cc2)cc1
  cell number change: 13.9%
[2]
  AC50: 11.2 µM [rising, partial curve]

## Cc1ccc(-c2csc3ncnc(Oc4ccc5c(C)cc(=O)oc5c4)c23)cc1
  cell number change: 5.31%

## Cc1cc2nc(N)sc2cc1C
  cell number change: -2.74%

## O=C(O)COc1ccc(Br)cc1/C=N/O
  cell number change: 0.413%

## O=C1C2CC=CCC2C(=O)N1c1ccc(NCCc2ccc(O)cc2)c([N+](=O)[O-])c1 (centres undefined)
  cell number change: -0.219%
[2]
  AC50: 14.6 µM [falling, partial curve]
